# Experimental data as given in patent publication US10167257B2, “Indole derivatives for use in medicine” (IOmet Pharma Ltd., priority 2014, dated 2019).
# Protein sequences, listed by entry. Tags and fused reporters are not part of them.
# UniProt P14902, whole entry: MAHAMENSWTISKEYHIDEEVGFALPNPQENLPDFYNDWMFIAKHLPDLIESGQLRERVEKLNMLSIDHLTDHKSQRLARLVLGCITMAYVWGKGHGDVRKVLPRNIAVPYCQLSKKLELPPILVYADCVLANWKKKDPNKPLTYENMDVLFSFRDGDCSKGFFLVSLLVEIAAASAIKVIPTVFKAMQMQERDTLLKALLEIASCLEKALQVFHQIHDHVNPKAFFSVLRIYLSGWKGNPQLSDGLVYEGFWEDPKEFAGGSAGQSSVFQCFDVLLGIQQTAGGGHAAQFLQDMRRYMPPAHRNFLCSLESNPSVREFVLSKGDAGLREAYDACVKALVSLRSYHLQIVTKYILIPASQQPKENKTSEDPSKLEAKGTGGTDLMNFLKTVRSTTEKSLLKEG
# Some of these results come from one statement about several compounds together.
# Target: human IDO protein (Homo sapiens, UniProt P14902)
# Assay: IDO biochemical coupled assay (hIDO)
# Details: 0.17 μM human IDO protein, biochemical coupled assay with formamidase
# Text: Two different types of assay were employed: 1. A TDO and IDO biochemical coupled assay which utilised recombinantly produced and purified TDO and IDO enzymes in combination with the enzyme formamidase. This coupled enzyme system allowed conversion of N-formylkynurenine produced by TDO or IDO activity to kynurenine which was then quantified by fluorescence following addition of Erhlich's Reagent. 2. A cell-based assay for detecting the effect of test compounds on kynurenine production in two different cancer cell types. This assay utilised cancer cells which expressed either TDO or IDO and as such was used as a means of testing compound activity at these two enzymes in a cell-based context. The protocols for these are set out below.
# 0.17 μM of human IDO protein was pre-incubated for 10 min or 120 min at RT with test compounds in the presence of 50 mM KPO4, pH 7.0, 0.5 mM EDTA, 0.5 mM EGTA, 0.05% Triton X-100, 20 mM ascorbate, 500 U/ml catalase, 10 μM methylene blue at RT in a 384 well plate. 0.05 μg/μl kynurenine formamidase and 45 μM or 121 μM L-tryptophan (L-Trp) were added and the assays were incubated at RT for 17 min. Assays were stopped and the level of kynurenine was determined by incubation with Ehrlich's reagent to a final concentration of 1.33% at RT for 5 min. Fluorescence intensity was read at 475 nm/530 nm.
row,Compound,pIC50 in the hIDO assay
1,CC(NC(=O)c1cc2cc(Cl)ccc2[nH]1)c1ccc(C(=O)N(C)C)cc1 (stereo not shown) [Compound 83],> 5
2,CC(=O)N1CCC(C2(NC(=O)c3cc4cc(Cl)ccc4[nH]3)CC2)CC1 [Compound 160],> 5
3,COc1ccc2[nH]c(C(=O)NC3(c4ccccc4)COC3)cc2c1 [Compound 178],> 5
4,Cn1cc(C2(NC(=O)c3cc4cc(Cl)cc(F)c4[nH]3)CC2)cn1 [Compound 205],> 5
5,Cn1cc(C2(NC(=O)c3cc4cc(Cl)ccc4[nH]3)CCC2)cn1 [Compound 215],> 5
6,O=C(NC1(c2ccccc2)CCCC1)c1cc2cc(Cl)ccc2[nH]1 [Compound 230],> 5
7,N#Cc1ccc2[nH]c(C(=O)NC3(c4ccccc4)CCCC3)cc2c1 [Compound 231],> 5
